Experimental data from article PMC10783636, “Chlorophyll biosynthesis under the control of arginine metabolism” (Cell Reports, 2023).
These are yes or no findings as the source states them, for the method shown. Binding seen in cells or lysates may run through a third protein. Some results given as binding are weak or reduced against the parent protein; the word gives no strength. For part of these data: Tags and fused reporters may be left off the sequences shown.

By UniProt entry, the sequences of proteins in these tests, tags left out.
UniProt P77581: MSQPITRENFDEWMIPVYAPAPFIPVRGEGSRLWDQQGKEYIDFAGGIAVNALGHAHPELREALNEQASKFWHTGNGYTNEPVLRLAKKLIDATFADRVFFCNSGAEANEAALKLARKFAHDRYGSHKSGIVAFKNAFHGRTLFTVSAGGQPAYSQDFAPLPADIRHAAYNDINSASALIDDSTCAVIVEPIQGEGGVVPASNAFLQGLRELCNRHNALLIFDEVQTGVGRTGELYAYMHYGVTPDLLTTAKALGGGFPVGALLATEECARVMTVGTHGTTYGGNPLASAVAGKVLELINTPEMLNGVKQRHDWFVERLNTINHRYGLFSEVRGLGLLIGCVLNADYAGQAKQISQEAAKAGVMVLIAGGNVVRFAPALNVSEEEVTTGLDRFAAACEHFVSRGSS

How the values were obtained:
[1] = target: T1, 3×FLAG-tagged ArgD (N-acetylornithine aminotransferase) of Synechocystis sp. PCC 6803 (Synechocystis sp. PCC 6803) (UniProt P73133); experiment: co-IP; f.ArgD or f.AstC purified from the soluble fraction of Synechocystis strains (ΔargD or ΔcphB background; cells with nitrate, without or with 1 mM Orn for 24 h) on anti-FLAG M2 gel, eluted with 3xFLAG peptide; SDS-PAGE, stained, blotted and probed with anti-Gun4 and anti-CphB
T1 sequence: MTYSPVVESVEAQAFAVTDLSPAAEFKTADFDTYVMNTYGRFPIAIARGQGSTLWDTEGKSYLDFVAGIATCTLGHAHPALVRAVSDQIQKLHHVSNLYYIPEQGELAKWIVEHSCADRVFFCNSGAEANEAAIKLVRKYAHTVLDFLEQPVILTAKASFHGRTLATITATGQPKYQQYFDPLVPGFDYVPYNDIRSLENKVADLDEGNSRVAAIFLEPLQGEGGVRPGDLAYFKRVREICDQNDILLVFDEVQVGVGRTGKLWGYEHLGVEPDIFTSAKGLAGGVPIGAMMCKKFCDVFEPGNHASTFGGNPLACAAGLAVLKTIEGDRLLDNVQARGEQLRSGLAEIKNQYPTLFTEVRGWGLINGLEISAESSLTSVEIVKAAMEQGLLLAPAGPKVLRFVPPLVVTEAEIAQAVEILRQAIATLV

[2] = target: FLAG-tagged AstC of E. coli, the ArgD homolog, expressed in Synechocystis (Escherichia coli) (UniProt P77581); experiment: as above

B1: cyanophycinase CphB of Synechocystis sp. PCC 6803 (native) (enzyme, UniProt P73832 1-271, looked up)
chain: MPLSSQPAILIIGGAEDKVHGREILQTFWSRSGGNDAIIGIIPSASREPLLIGERYQTIFSDMGVKELKVLDIRDRAQGDDSGYRLFVEQCTGIFMTGGDQLRLCGLLADTPLMDRIRQRVHNGEISLAGTSAGAAVMGHHMIAGGSSGEWPNRALVDMAVGLGIVPEIVVDQHFHNRNRMARLLSAISTHPELLGLGIDEDTCAMFERDGSVKVIGQGTVSFVDARDMSYTNAALVGANAPLSLHNLRLNILVHGEVYHQVKQRAFPRVT
notes: cyanophycinase CphB, Synechocystis sp; PCC 6803, gene slr2001; printed as 29.4 kDa; Migrated like a large oligomer (>200 kDa) on the BN gel; source: endogenous, Synechocystis soluble fraction
With B1 the binding [1] was “binds” and the binding [2] was “no binding”.

B2: 3×FLAG-tagged ArgD (N-acetylornithine aminotransferase) of Synechocystis sp. PCC 6803 (enzyme, UniProt P73133 1-429, looked up)
chain: T1 sequence
notes: N-acetylornithine aminotransferase ArgD, Synechocystis sp; PCC 6803, gene slr1022; synthetic argD gene with optimised codon usage cloned into pPD-NFLAG; f.ArgD printed as 49.8 kDa; also called f.ArgD; source: Synechocystis f.argD+/ΔargD or f.argD+/ΔcphB strain (psbAII promoter), soluble fraction; not shown: 3xFLAG, N-terminal, kept
For B2, the binding [1] was “binds”.
